This is an account of results in patent US20210292397A1 (LA TROBE UNIVERSITY, published 2021).

Experiment [1] has as its target Laminin (Homo sapiens). Nature of the experiment: ELISA, absorbance at 405 nm, n=9, PBS as control.
The target of experiment [2] is C-term heparin (Homo sapiens). Nature of the experiment: ELISA of fibronectin fragments and full-length fibronectin with UpaB.

These are yes or no findings as the source states them, for the method shown. For some assays here: A result given as binding can be weak or reduced; the word gives no strength.

B1: UpaB α-domain (α^UpaB) from UPEC strain CFT073 (other)
chain: TDSTVSTDPVTLNTEKTTLDQDVVINGDNKITAVTIETSDSDKDLNVTFGGHDITAASTVNQDFVEGVKVSGNKNVVINATDSTITAQGEGTYVRTAMVIDSTGDVVVNGGNFVAKNEKGSATGISLEATTGNNLTLNGTTINAQGNKSYSNGSTAIFAQKGNLLQGFDGDATDNITLADSNIINGGIETIVTAGNKTGIHTVNLNIKDGSVIGAANNKQTIYASASAQGAGSATQNLNLSVADSTIYSDVLALSESENSASTTTNVNMNVARSYWEGNAYTFNSGDKAGSDLDINLSDSSVWKGKVSGAGDASVSLQNGSVWNVTGSSTVDALAVKDSTVNITKATVNTGTFASQNGTLIVDASSENTLDISGKASGDLRVYSAGSLDLINEQTAFISTGKDSTLKATGTTEGGLYQYDLTQGADGNFYFVKNTHKASNASSVIQAMAAAPANVANLQADTL
notes: also called α^UPaB (native)
In the case of B1, the binding entry is on record as “binds” in experiment [1] and “no binding” in experiment [2].
